According to paper PMC8032863:
Results are given in words; binding and its absence hold for the method and conditions named. In cells and extracts the contact can be indirect.

By UniProt entry, the sequences of proteins in these tests, tags left out.
UniProt P07355: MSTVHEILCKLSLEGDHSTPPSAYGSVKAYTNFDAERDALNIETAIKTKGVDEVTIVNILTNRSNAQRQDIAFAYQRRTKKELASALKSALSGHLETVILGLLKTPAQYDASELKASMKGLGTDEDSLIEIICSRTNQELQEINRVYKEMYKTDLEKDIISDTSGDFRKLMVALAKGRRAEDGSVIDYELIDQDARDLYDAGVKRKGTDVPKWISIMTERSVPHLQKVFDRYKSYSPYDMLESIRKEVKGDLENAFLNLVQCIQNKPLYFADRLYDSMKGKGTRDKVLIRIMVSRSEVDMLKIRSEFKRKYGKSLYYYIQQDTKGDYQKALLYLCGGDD
UniProt Q8WUM4: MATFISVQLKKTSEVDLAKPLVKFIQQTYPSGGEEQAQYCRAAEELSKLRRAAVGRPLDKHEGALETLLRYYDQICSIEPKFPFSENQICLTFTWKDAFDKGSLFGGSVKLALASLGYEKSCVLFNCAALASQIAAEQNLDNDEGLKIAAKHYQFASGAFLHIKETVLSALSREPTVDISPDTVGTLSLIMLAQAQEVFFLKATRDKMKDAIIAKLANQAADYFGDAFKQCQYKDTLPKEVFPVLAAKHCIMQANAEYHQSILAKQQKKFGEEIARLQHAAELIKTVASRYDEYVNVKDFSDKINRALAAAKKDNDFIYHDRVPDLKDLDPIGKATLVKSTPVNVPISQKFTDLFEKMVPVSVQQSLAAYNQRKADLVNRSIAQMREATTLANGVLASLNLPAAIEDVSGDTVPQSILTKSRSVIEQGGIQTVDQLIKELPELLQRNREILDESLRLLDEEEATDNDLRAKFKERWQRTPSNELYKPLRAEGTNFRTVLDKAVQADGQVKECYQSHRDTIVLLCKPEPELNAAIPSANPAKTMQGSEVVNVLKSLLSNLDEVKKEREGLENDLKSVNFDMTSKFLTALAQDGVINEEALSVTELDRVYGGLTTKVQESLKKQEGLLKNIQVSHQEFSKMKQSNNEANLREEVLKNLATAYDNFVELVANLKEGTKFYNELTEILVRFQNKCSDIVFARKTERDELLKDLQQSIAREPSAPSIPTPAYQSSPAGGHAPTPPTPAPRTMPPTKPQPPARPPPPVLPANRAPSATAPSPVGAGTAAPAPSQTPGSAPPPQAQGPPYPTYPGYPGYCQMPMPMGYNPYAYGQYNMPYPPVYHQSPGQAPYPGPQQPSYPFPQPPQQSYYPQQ

Target: Annexin A2 (human (endogenous in serum extracellular vesicles)) (UniProt P07355)
Assay: co-IP; anti-ANXA2 antibody (ab235939) on protein A magnetic Dynabeads; RIPA lysates of SEVs, SEV + cel-miR-39 and mimic alone; 1 h at room temperature; washed 3 times with PBS-0.1% Tween; western blot for ANXA2 and Alix

binding: no binding
Substance: Alix (from UniProt Q8WUM4 1-868)
